From paper PMC4729438 come the findings set out here.

Chains of the proteins cited; added tags and fusions are not shown. Residues count along the entry.
UniProt Q07021, residues 74-282: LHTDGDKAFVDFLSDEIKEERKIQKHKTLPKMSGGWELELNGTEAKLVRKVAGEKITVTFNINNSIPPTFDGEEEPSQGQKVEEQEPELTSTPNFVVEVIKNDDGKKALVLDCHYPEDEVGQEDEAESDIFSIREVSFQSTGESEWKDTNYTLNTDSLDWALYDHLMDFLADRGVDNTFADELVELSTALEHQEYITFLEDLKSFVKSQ

These are yes or no findings as the source states them, for the method shown. Binding seen in cells or lysates may run through a third protein. Binding can be weak; no strength is given.

The test deals with DUX4 homeodomain mutant defective in DNA binding (HOX1.V5) (human) (UniProt Q9UBX2). The test is described as follows: co-IP; HEK293 cells transfected with V5-tagged DUX4 constructs, alone or with Myc-DDK-tagged partners; lysate in 137 mM NaCl, 10 mM Tris-HCl pH 7.4, 1% NP40; IP with V5- or Myc-antibody agarose 16-20 h at 4 °C; western blot. A general note: Immunoblotting shows a protein as a band on a membrane.

On to “C1QBP, endogenous in human cells (from UniProt Q07021 74-282)”, for which the binding entry is “binds”.
